Patent publication US9517222B2, “Method for the treatment of senile dementia of the Alzheimer's type” (Phenomenome Discoveries Inc., priority 2007, dated 2016)
Where no unit stands, none is given here, and values compare only within one read-out.

Assays:
[1] = Serum ethanolamine phospholipid ratios to PtdEt 16:0/18:0 (M01) in human cohorts
[2] = Serum ethanolamine phospholipid levels in human cohorts (dementia severity, post-mortem pathology, age) by flow-injection MS/MS
[3] = serum, females, post mortem SDAT
[4] = serum, females, post mortem control

For `CCCCC/C=C\C/C=C\C/C=C\C/C=C\CCCC(=O)OC(CO/C=C\CCCCCCCCCCCCCC)COP(=O)(O)OCCN` (centres unmarked) [Metabolite M17, Plasmenyl 16:0/20:4], the “Ratio of ethanolamine phospholipid ratios to M01 between cohorts” value (“Ratio … to M01 between cohorts” for short) ([1]; AD, All to CN, Male) was 0.611, the “Ratio … to M01 between cohorts” value ([1]; ADAS 5-19 to CN, Male) was 0.679 and the “Ratio … to M01 between cohorts” value ([1]; ADAS 20-39 to CN, Male) was 0.595. The “Ratio … to M01 between cohorts” value ([1]; ADAS 40-70 to CN, Male) was 0.520, the “Average serum ethanolamine phospholipid ratio to M01, Mean” value ([1]; Cognitive Normal, Male, serum) was 4.203 and the “Average serum ethanolamine phospholipid ratio to M01, Mean” value ([1]; SDAT, ADAS 5-19, Male, serum) was 2.853. For the same molecule, the “Average serum ethanolamine phospholipid ratio to M01, Mean” value ([1]; SDAT, ADAS 20-39, Male, serum) was 2.501, the “Average serum ethanolamine phospholipid ratio to M01, Mean” value ([1]; SDAT, ADAS 40-70, Male, serum) was 2.187 and the “Average serum ethanolamine phospholipid ratio to M01, Mean” value ([1]; SDAT_all, Male, serum) was 2.569. The “Ethanolamine Phospholipid Ratio to M01, Mean, Age Ctl, 30-39, Female” value ([1]; human serum, females aged 30-39) was 4.055, the “Ethanolamine Phospholipid Ratio to M01, Mean, Age Ctl, 40-49, Female” value ([1]; human serum, females aged 40-49) was 4.149 and the “Ethanolamine Phospholipid Ratio to M01, Mean, Age Ctl, 50-59, Female” value ([1]; human serum, females aged 50-59) was 3.987. The “Ratio of Ethanolamine Phospholipid Ratio to M01, 50-59 vs. 40-49, Female” value ([1]; human serum, females aged 50-59 vs. females aged 40-49) was 0.961, the “Ethanolamine Phospholipid Ratio to M01, Mean, Age Ctl, 60-69, Female” value ([1]; human serum, females aged 60-69) was 2.963 and the “Ratio of Ethanolamine Phospholipid Ratio to M01, 60-69 vs. 40-49, Female” value ([1]; human serum, females aged 60-69 vs. females aged 40-49) was 0.714. For the same molecule, the “Ethanolamine Phospholipid Ratio to M01, Mean, Age Ctl, 70+_Female” value ([1]; human serum, females aged 70+) was 3.010, the “Ratio of Ethanolamine Phospholipid Ratio to M01, 70+ vs. 40-49, Female” value ([1]; human serum, females aged 70+ vs. females aged 40-49) was 0.726 and the “Ratio of Ethanolamine Phospholipid Ratio to M01, 50-59 vs. 40-49, Male” value ([1]; human serum, males aged 50-59 vs. males aged 40-49) was 1.258. For the same molecule, the “Ratio of Ethanolamine Phospholipid Ratio to M01, 60-69 vs. 40-49, Male” value ([1]; human serum, males aged 60-69 vs. males aged 40-49) was 1.001, the “Ratio of Ethanolamine Phospholipid Ratio to M01, 70+ vs. 40-49, Male” value ([1]; human serum, males aged 70+ vs. males aged 40-49) was 1.004 and the “Ratio of ethanolamine phospholipid ratio to M01, ADAS 5-19 to CN, Female” value ([1]; serum, females, ADAS 5-19 vs cognitive normal) was 0.851. For the same molecule, the “Ratio of ethanolamine phospholipid ratio to M01, ADAS 20-39 to 5-19, Female” value ([1]; serum, females, ADAS 20-39 vs ADAS 5-19) was 0.924, the “Ratio of ethanolamine phospholipid ratio to M01, ADAS 20-39 to CN, Female” value ([1]; serum, females, ADAS 20-39 vs cognitive normal) was 0.786 and the “Ratio of ethanolamine phospholipid ratio to M01, ADAS 40-70 to 5-19, Female” value ([1]; serum, females, ADAS 40-70 vs ADAS 5-19) was 0.711. For the same molecule, the “Ratio of ethanolamine phospholipid ratio to M01, ADAS 40-70 to 20-39, Female” value ([1]; serum, females, ADAS 40-70 vs ADAS 20-39) was 0.769, the “Ratio of ethanolamine phospholipid ratio to M01, ADAS 40-70 to CN, Female” value ([1]; serum, females, ADAS 40-70 vs cognitive normal) was 0.605 and the “Ethanolamine phospholipid ratio to M01, Mean, SDAT, ADAS 5-19, Female” value ([1]; serum, females, SDAT ADAS 5-19) was 2.976. The “Ethanolamine phospholipid ratio to M01, Mean, SDAT, ADAS 20-39, Female” value ([1]; serum, females, SDAT ADAS 20-39) was 2.750, the “Ethanolamine phospholipid ratio to M01, Mean, SDAT, ADAS 40-70, Female” value ([1]; serum, females, SDAT ADAS 40-70) was 2.115 and the “Ratio of ethanolamine phospholipid ratio to M01, AD, All to CN, Female” value ([1]; serum, females, all AD vs cognitive normal) was 0.742. For the same molecule, the “Ethanolamine phospholipid ratio to M01, Mean, SDAT_all Female” value ([1]; serum, females, all SDAT) was 2.593, the “Ratio of ethanolamine phospholipid ratio to M01, Autopsy AD vs. Control, Female” value ([1]; serum, females, autopsy AD vs post mortem control) was 0.848 and the “Ethanolamine phospholipid ratio to M01, Mean, Cognitive Normal, Female” value ([1]; serum, females, cognitive normal) was 3.497. For the same molecule, the “Ethanolamine phospholipid ratio to M01, Mean, Post Mortem SDAT Female” value [1, 3] was 0.591, the “Ethanolamine phospholipid ratio to M01, Mean, Post Mortem Ctl, Female” value [1, 4] was 0.697 and the “Ratio of ethanolamine phospholipid ratio to M01, ADAS 20-39 to 5-19, Male” value ([1]; serum, males, SDAT ADAS 20-39 vs ADAS 5-19) was 0.877. For the same molecule, the “Ratio of ethanolamine phospholipid ratio to M01, ADAS 40-70 to 5-19, Male” value ([1]; serum, males, SDAT ADAS 40-70 vs ADAS 5-19) was 0.767, the “Ratio of ethanolamine phospholipid ratio to M01, ADAS 40-70 to 20-39, Male” value ([1]; serum, males, SDAT ADAS 40-70 vs ADAS 20-39) was 0.875 and the “Ethanolamine phospholipid ratio to M01, Mean, Age Ctl, 30-39, Male” value ([1]; serum, males, age control 30-39) was 4.127. The “Ethanolamine phospholipid ratio to M01, Mean, Age Ctl, 40-49, Male” value ([1]; serum, males, age control 40-49) was 3.164, the “Ethanolamine phospholipid ratio to M01, Mean, Age Ctl, 50-59, Male” value ([1]; serum, males, age control 50-59) was 3.980 and the “Ethanolamine phospholipid ratio to M01, Mean, Age Ctl, 60-69, Male” value ([1]; serum, males, age control 60-69) was 3.167. The “Ethanolamine phospholipid ratio to M01, Mean, Age Ctl, 70+_Male” value ([1]; serum, males, age control 70+) was 3.178, the “Ethanolamine phospholipid ratio to M01, Mean, Post Mortem SDAT Male” value ([1]; serum, males, post mortem SDAT) was 0.561 and the “Ratio of ethanolamine phospholipid ratio to M01, SDAT vs Control (post mortem, males)” value ([1]; serum, males, post mortem SDAT vs post mortem control) was 0.660. The “Ethanolamine phospholipid ratio to M01, Mean, Post Mortem Ctl, Male” value ([1]; serum, males, post mortem control) was 0.849, the “Ratio of serum levels” value ([2]; AD, All to CN, Male) was 0.644 and the “Ratio of serum levels” value ([2]; ADAS 5-19 to CN, Male) was 0.718. The “Ratio of serum levels” value ([2]; ADAS 20-39 to 5-19, Male) was 0.865, the “Ratio of serum levels” value ([2]; ADAS 20-39 to CN, Male) was 0.621 and the “Ratio of serum levels” value ([2]; ADAS 40-70 to 5-19, Male) was 0.716. For the same molecule, the “Ratio of serum levels” value ([2]; ADAS 40-70 to 20-39, Male) was 0.828, the “Ratio of serum levels” value ([2]; ADAS 40-70 to CN, Male) was 0.515 and the “Serum level, Mean” value ([2]; Cognitive Normal, Female) was 0.408. The “Average serum level, Mean” value ([2]; Cognitive Normal, Male) was 0.470, the “Serum level, Mean” value ([2]; Post Mortem Ctl, Male) was 0.097 and the “Serum level, Mean” value ([2]; Post Mortem SDAT Male) was 0.047. The “Ratio of serum levels” value ([2]; Post mortem SDAT vs Control, Male) was 0.489, the “Serum level, Mean” value ([2]; SDAT, ADAS 5-19, Female) was 0.317 and the “Average serum level, Mean” value ([2]; SDAT, ADAS 5-19, Male) was 0.338. For the same molecule, the “Serum level, Mean” value ([2]; SDAT, ADAS 20-39, Female) was 0.304, the “Average serum level, Mean” value ([2]; SDAT, ADAS 20-39, Male) was 0.292 and the “Serum level, Mean” value ([2]; SDAT, ADAS 40-70, Female) was 0.247. For the same molecule, the “Average serum level, Mean” value ([2]; SDAT, ADAS 40-70, Male) was 0.242, the “Serum level, Mean” value ([2]; SDAT_all, Female) was 0.288 and the “Average serum level, Mean” value ([2]; SDAT_all, Male) was 0.302. For the same molecule, the “Ratio, ADAS 5-19 to CN, Female” value ([2]; serum level ratio, females, ADAS 5-19 vs CN) was 0.776, the “Ratio, ADAS 20-39 to 5-19, Female” value ([2]; serum level ratio, females, ADAS 20-39 vs ADAS 5-19) was 0.960 and the “Ratio, ADAS 20-39 to CN, Female” value ([2]; serum level ratio, females, ADAS 20-39 vs CN) was 0.745. The “Ratio, ADAS 40-70 to 5-19, Female” value ([2]; serum level ratio, females, ADAS 40-70 vs ADAS 5-19) was 0.779, the “Ratio, ADAS 40-70 to 20-39, Female” value ([2]; serum level ratio, females, ADAS 40-70 vs ADAS 20-39) was 0.812 and the “Ratio, ADAS 40-70 to CN, Female” value ([2]; serum level ratio, females, ADAS 40-70 vs CN) was 0.605. For the same molecule, the “Ratio, 50-59 vs. 40-49, Female” value ([2]; serum level ratio, females, age 50-59 vs 40-49) was 0.856, the “Ratio, 60-69 vs. 40-49, Female” value ([2]; serum level ratio, females, age 60-69 vs 40-49) was 0.773 and the “Ratio, 70+ vs. 40-49, Female” value ([2]; serum level ratio, females, age 70+ vs 40-49) was 0.786. The “Ratio, AD, All to CN, Female” value ([2]; serum level ratio, females, all AD vs cognitively normal) was 0.705, the “Ratio, Autopsy AD vs. Control, Female” value ([2]; serum level ratio, females, autopsy AD vs control) was 0.592 and the “Ratio, 50-59 vs. 40-49, Male” value ([2]; serum level ratio, males, age 50-59 vs 40-49) was 1.291. The “Ratio, 60-69 vs. 40-49, Male” value ([2]; serum level ratio, males, age 60-69 vs 40-49) was 1.241, the “Ratio, 70+ vs. 40-49, Male” value ([2]; serum level ratio, males, age 70+ vs 40-49) was 1.235 and the “Mean serum level, Age Ctl, 30-39, Female” value ([2]; serum, females, age 30-39) was 0.419. For the same molecule, the “Mean serum level, Age Ctl, 40-49, Female” value ([2]; serum, females, age 40-49) was 0.458, the “Mean serum level, Age Ctl, 50-59, Female” value ([2]; serum, females, age 50-59) was 0.392 and the “Mean serum level, Age Ctl, 60-69, Female” value ([2]; serum, females, age 60-69) was 0.354. For the same molecule, the “Mean serum level, Age Ctl, 70+, Female” value ([2]; serum, females, age 70+) was 0.360, the “Mean serum level, Post Mortem SDAT, Female” value [2, 3] was 0.067 and the “Mean serum level, Post Mortem Ctl, Female” value [2, 4] was 0.113. The “Mean serum level, Age Ctl, 30-39, Male” value ([2]; serum, males, age 30-39) was 0.489, the “Mean serum level, Age Ctl, 40-49, Male” value ([2]; serum, males, age 40-49) was 0.332 and the “Mean serum level, Age Ctl, 50-59, Male” value ([2]; serum, males, age 50-59) was 0.429. For the same molecule, the “Mean serum level, Age Ctl, 60-69, Male” value ([2]; serum, males, age 60-69) was 0.412 and the “Mean serum level, Age Ctl, 70+, Male” value ([2]; serum, males, age 70+) was 0.410.
